PubChem BioAssay AID686938, Drosophila RNAi Screening Center | 2013
The deposit covers about 23,000 reagents; below is an unselected part of those with a known target gene and a result. Over the whole deposit, 75 (0.33%) are marked active. 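Raw plate signals without normalisation; calls rest on plate z-scores that were not deposited; ratio present for only 364 wells.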 Unmarked entries are inactive. A plus sign joins genes that one reagent is predicted to hit. Not stated in the record: the dose of the treatment.

Test: 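Fly genes required for calcium entry once internal stores are emptied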 (primary screen)
Cells: Drosophila S2R+ cells
Reagents: long dsRNA against Drosophila genes, about 0.25 µg dsRNA per well, roughly 10,000 cells
Duration: 5 days of knock-down before the calcium assay
Challenge: thapsigargin (SERCA pump blocker) to empty calcium stores; entry signal taken 4 min after adding it
Read-out: 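Per-well fluo-4 fluorescence in two replicates, unnormalised, measured in resting cells and 4 min after store depletion by the SERCA blocker thapsigargin; ratio of the two present in few wells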
Reading the numbers: calcium entry signal: higher = stronger calcium signal after store depletion; entry to resting ratio: higher = more calcium entry relative to resting level; resting calcium signal: higher = higher resting calcium signal
Units: calcium entry signal in fluorescence units; resting calcium signal in fluorescence units
Call rule: 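Hit if the duplicate-averaged plate z-score for entry over resting signal is under −3; wells with weak total dye signal (Fmax z < −2) or more than 5 off-targets removed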
Meaning of the calls: active = strongly reduced calcium entry; inactive = no strong reduction

Gene	amplicon	calcium entry signal, replicate 1	calcium entry signal, replicate 2	entry to resting ratio	resting calcium signal, replicate 1	resting calcium signal, replicate 2
CG31323	DRSC14901	4.36e7	3.90e7		2.03e7	1.54e7
ScsbetaG	DRSC11294	3.78e7	6.31e7		1.85e7	2.51e7
ste24a	DRSC07314	4.74e7	4.21e7		1.98e7	1.82e7
Brd	DRSC09685	4.71e7	6.78e7		2.21e7	2.38e7
Rtnl1	DRSC00851	3.83e7	3.49e7		2.06e7	1.71e7
Rtnl1	DRSC02684	3.99e7			2.17e7	
Rtnl1	DRSC03122	4.03e7			2.05e7	
Rtnl1	DRSC21698	3.72e7	3.84e7		1.99e7	1.73e7
CG7692	DRSC10902	4.47e7	6.26e7		1.99e7	2.64e7
CG15803	DRSC15121	3.80e7	4.80e7		4.31e7	2.13e7
RpS27A	DRSC03421	1.55e7	1.92e7		9.80e6	1.17e7
Muc30E	DRSC01101	4.57e7	6.86e7		2.23e7	3.41e7
CG4287	DRSC15559	5.10e7	2.05e7		2.23e7	9.97e6
wit	DRSC08741	4.74e7	3.29e7		3.04e7	1.34e7
CG4017	DRSC02733	3.14e7	4.16e7		1.71e7	1.92e7
CG17568	DRSC02628	4.00e7	4.17e7		2.42e7	2.09e7
Npc2e	DRSC15522	2.95e7	2.37e7		1.54e7	1.32e7
Npc2e	DRSC22338	3.84e7	6.30e7		1.90e7	3.07e7
CG8607	DRSC11012	2.41e7	3.25e7		1.15e7	1.52e7
HLH3B	DRSC18669	3.39e7	4.40e7	1.8	1.90e7	1.84e7
Pex3	DRSC10731	2.99e7	3.86e7		1.41e7	2.53e7
Tis11	DRSC20293	3.93e7	3.73e7		1.97e7	1.92e7
Tis11	DRSC23110	4.00e7	4.19e7		1.79e7	1.88e7
CG13250	DRSC11698	3.21e7	5.03e7		1.62e7	2.29e7
gwl	DRSC16305	2.22e7	2.51e7		1.12e7	1.12e7
CG42686 (retired record)	DRSC15247	2.68e7	2.83e7		1.65e7	1.67e7
CG42686 (retired record)	DRSC15248	4.29e7	4.53e7		1.94e7	1.92e7
CG42686 (retired record)	DRSC22995	6.18e7	3.75e7		3.12e7	1.53e7
CG32668	DRSC18879	3.30e7	3.15e7		1.57e7	1.66e7
Hmr	DRSC17740	3.42e7	4.51e7		1.64e7	2.28e7
CG9853	DRSC12343	3.56e7	5.53e7		1.73e7	2.64e7
CG9853	DRSC22840	2.58e7	4.50e7		1.36e7	1.95e7
CG4582	DRSC15605	3.92e7	4.36e7		1.82e7	1.83e7
EndoU	DRSC15472	1.91e7	2.29e7		8.78e6	1.01e7
dgt5	DRSC07280	3.55e7	3.73e7		1.67e7	1.83e7
CG32201	DRSC22452	3.09e7	2.86e7		1.87e7	1.39e7
slv	DRSC07685	2.67e7	4.49e7		1.34e7	1.83e7
sordd2 + sordd1	DRSC20136	3.64e7	3.69e7		1.66e7	1.63e7
CG46301	DRSC01916	2.34e7	5.39e7		1.54e7	2.42e7
CG2983	DRSC00558	3.29e7	3.88e7		1.55e7	1.69e7
Rab9D + Rab9Fa + Rab9E	DRSC19853	4.05e7	4.75e7		1.91e7	2.02e7
CG7882	DRSC04899	4.01e7	5.22e7		1.95e7	2.48e7
CG31058 (retired record)	DRSC15840	2.09e7	3.85e7		1.23e7	1.99e7
CG31058 (retired record)	DRSC22987	4.12e7	3.67e7		2.30e7	1.62e7
CG13081	DRSC02185	4.71e7	4.64e7		2.09e7	1.85e7
Prosbeta4R1	DRSC00502	3.54e7	3.53e7		1.74e7	1.74e7
CG11249	DRSC11645	3.24e7	4.26e7		1.46e7	1.93e7
CG31522	DRSC12005	4.27e7	2.97e7		2.15e7	1.47e7
Osbp	DRSC16779	4.32e7	4.48e7		2.01e7	2.06e7
INPP5E	DRSC09723	2.79e7	5.10e7		1.55e7	2.22e7
CG10324	DRSC14230	1.67e7	2.50e7		1.07e7	5.41e7
Gdap1	DRSC10437	2.94e7	4.37e7		1.50e7	1.82e7
tkv	DRSC00860	3.90e7	3.30e7		1.72e7	1.54e7
tkv	DRSC03623	4.25e7			2.15e7	
tkv	DRSC22606	3.50e7	4.74e7		1.75e7	2.29e7
lola	DRSC05220	5.20e7	3.29e7		3.50e7	1.54e7
lola	DRSC05221	4.09e7	2.87e7		2.92e7	1.26e7
lola	DRSC05222	5.16e7	2.73e7		2.35e7	1.13e7
lola	DRSC05223	4.97e7	2.55e7		3.87e7	1.11e7
lola	DRSC05224	3.03e7	4.94e7		1.41e7	2.01e7
lola	DRSC06738	4.44e7	4.04e7		1.93e7	1.91e7
lola	DRSC06739	4.97e7	4.02e7		2.34e7	1.80e7
lola	DRSC06740	4.35e7	4.28e7		1.87e7	2.07e7
lola	DRSC06741	3.90e7	4.23e7		1.74e7	1.64e7
lola	DRSC06742	5.12e7	3.17e7		2.54e7	1.62e7
lola	DRSC07646	4.07e7	4.27e7		1.76e7	1.95e7
lola	DRSC07647	4.89e7	3.92e7		2.73e7	1.73e7

Limited to “resting calcium signal, replicate 2”, for 9 of the entries above:
CG8607 [DRSC11012] = 1.52e7
HLH3B [DRSC18669] = 1.84e7
Pex3 [DRSC10731] = 2.53e7
Tis11 [DRSC20293] = 1.92e7
Tis11 [DRSC23110] = 1.88e7
CG13250 [DRSC11698] = 2.29e7
gwl [DRSC16305] = 1.12e7
CG42686 (retired record) [DRSC15247] = 1.67e7
CG42686 (retired record) [DRSC15248] = 1.92e7
